# Measured values reported in patent US12485161B2, “Compositions comprising sulforaphane or a sulforaphane precursor and a milk thistle extract or powder” (Nutramax Laboratories, Inc., priority 2012, dated 2025).
# Tested on: broccoli sprout-derived myrosinase
# Experiment: Consumption of glucoraphanin by myrosinase as a function of the ascorbic acid concentration (Example 3)
# Format: biochemical
# Conditions: 38° C.
compound,measurement,setting,value
"C[S+]([O-])CCCC/C(=N\OS(=O)(=O)O)S[C@@H]1O[C@H](CO)[C@@H](O)[C@H](O)[C@H]1O (stereo partly drawn) [GR, 1-S-[(1E)-5-(methylsulfinyl)-N-(sulfonatooxy)pentanimidoyl]-1-thio-β-D-glucopyranose]",Glucoraphanin content,"ascorbic acid 0 μM, time 0 min",93.36 µmol
same,Glucoraphanin content,"ascorbic acid 0 μM, time 15 min",92.24 µmol
same,Glucoraphanin content,"ascorbic acid 0 μM, time 30 min",90.71 µmol
same,Glucoraphanin content,"ascorbic acid 0 μM, time 45 min",89.44 µmol
same,Glucoraphanin content,"ascorbic acid 0 μM, time 60 min",87.79 µmol
same,Glucoraphanin content,"ascorbic acid 50 μM, time 0 min",93.36 µmol
same,Glucoraphanin content,"ascorbic acid 50 μM, time 15 min",89.20 µmol
same,Glucoraphanin content,"ascorbic acid 50 μM, time 30 min",84.24 µmol
same,Glucoraphanin content,"ascorbic acid 50 μM, time 45 min",80.30 µmol
same,Glucoraphanin content,"ascorbic acid 50 μM, time 60 min",76.36 µmol
same,Glucoraphanin content,"ascorbic acid 125 μM, time 0 min",93.36 µmol
same,Glucoraphanin content,"ascorbic acid 125 μM, time 15 min",84.52 µmol
same,Glucoraphanin content,"ascorbic acid 125 μM, time 30 min",75.92 µmol
same,Glucoraphanin content,"ascorbic acid 125 μM, time 45 min",68.09 µmol
same,Glucoraphanin content,"ascorbic acid 125 μM, time 60 min",59.41 µmol
same,Glucoraphanin content,"ascorbic acid 250 μM Filtered, time 0 min",93.36 µmol
same,Glucoraphanin content,"ascorbic acid 250 μM Filtered, time 15 min",86.31 µmol
same,Glucoraphanin content,"ascorbic acid 250 μM Filtered, time 30 min",79.44 µmol
same,Glucoraphanin content,"ascorbic acid 250 μM Filtered, time 45 min",71.94 µmol
same,Glucoraphanin content,"ascorbic acid 250 μM Filtered, time 60 min",65.18 µmol
same,Glucoraphanin content,"ascorbic acid 250 μM, time 0 min",93.36 µmol
same,Glucoraphanin content,"ascorbic acid 250 μM, time 15 min",80.95 µmol
same,Glucoraphanin content,"ascorbic acid 250 μM, time 30 min",69.06 µmol
same,Glucoraphanin content,"ascorbic acid 250 μM, time 45 min",57.63 µmol
same,Glucoraphanin content,"ascorbic acid 250 μM, time 60 min",45.76 µmol
same,Glucoraphanin content,"ascorbic acid 400 μM, time 0 min",93.36 µmol
same,Glucoraphanin content,"ascorbic acid 400 μM, time 15 min",78.32 µmol
same,Glucoraphanin content,"ascorbic acid 400 μM, time 30 min",62.78 µmol
same,Glucoraphanin content,"ascorbic acid 400 μM, time 45 min",47.67 µmol
same,Glucoraphanin content,"ascorbic acid 400 μM, time 60 min",33.15 µmol
same,Glucoraphanin content,"ascorbic acid 600 μM, time 0 min",93.36 µmol
same,Glucoraphanin content,"ascorbic acid 600 μM, time 15 min",75.02 µmol
same,Glucoraphanin content,"ascorbic acid 600 μM, time 30 min",55.66 µmol
same,Glucoraphanin content,"ascorbic acid 600 μM, time 45 min",37.50 µmol
same,Glucoraphanin content,"ascorbic acid 600 μM, time 60 min",22.09 µmol
